Measurements as given in publication doi:10.1101/2020.06.09.141986.
Results are given in words; binding and its absence hold for the method and conditions named. Binding seen in cells or lysates may run through a third protein. A result given as binding can be weak or reduced; the word gives no strength.

By UniProt entry, the sequences of proteins in these tests, tags left out. Where a name states a change or a piece, a line headed by the entry shows the natural chain unless it says otherwise.
UniProt P31749: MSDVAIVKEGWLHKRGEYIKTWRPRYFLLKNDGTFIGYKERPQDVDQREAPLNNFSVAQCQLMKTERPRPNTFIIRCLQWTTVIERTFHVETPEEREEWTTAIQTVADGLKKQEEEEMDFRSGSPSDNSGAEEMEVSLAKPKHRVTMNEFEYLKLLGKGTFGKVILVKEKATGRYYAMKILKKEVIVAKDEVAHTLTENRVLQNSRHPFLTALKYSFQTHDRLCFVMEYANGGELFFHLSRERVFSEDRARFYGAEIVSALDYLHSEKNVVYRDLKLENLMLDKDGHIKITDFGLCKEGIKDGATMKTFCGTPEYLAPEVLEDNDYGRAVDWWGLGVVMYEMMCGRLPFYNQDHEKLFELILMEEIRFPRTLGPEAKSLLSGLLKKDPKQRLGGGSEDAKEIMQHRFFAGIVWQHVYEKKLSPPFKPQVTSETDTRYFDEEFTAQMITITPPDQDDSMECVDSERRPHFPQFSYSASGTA
UniProt P67775: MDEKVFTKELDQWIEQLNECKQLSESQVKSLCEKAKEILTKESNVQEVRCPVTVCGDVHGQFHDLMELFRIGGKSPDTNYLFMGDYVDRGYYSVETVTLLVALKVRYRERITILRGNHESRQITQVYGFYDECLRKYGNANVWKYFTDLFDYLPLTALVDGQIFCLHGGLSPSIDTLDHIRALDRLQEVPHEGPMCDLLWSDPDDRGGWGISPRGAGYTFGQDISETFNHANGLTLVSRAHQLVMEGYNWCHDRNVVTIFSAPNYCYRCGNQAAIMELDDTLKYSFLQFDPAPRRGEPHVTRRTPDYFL

Target: GST-Akt1 (UniProt P31749)
Test: pull-down

binding: binds
Substance: Flag-PP2AC (from UniProt P67775)
